In PMC6073727:

Target: T1, JAZ9 fused to the hemagglutinin (HA) tag (Arabidopsis) (UniProt Q8W4J8)
T1 sequence: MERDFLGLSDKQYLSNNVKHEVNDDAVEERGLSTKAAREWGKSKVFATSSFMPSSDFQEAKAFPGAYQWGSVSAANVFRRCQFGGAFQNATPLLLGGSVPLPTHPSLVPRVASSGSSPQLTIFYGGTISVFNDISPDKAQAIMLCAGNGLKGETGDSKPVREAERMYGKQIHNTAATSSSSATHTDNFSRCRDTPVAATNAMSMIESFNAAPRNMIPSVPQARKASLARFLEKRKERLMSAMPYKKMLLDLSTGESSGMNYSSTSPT
Assay: co-IP; semi-in vivo: 20 µg purified His-NOG1-2 from E. coli added to 1 mg total protein of HA-JAZ9 plants (or Col-0), overnight at 4 °C, then anti-HA agarose 3 h at 4 °C; blot with anti-GTPBP4 and anti-HA; only the binder purified

6x-histidine (His)-tagged NOG1-2 protein (Arabidopsis)
binding: binds

These are yes or no findings as the source states them, for the method shown. Binding seen in cells or lysates may run through a third protein. Binding calls can cover weak binding; strength is not graded here. Tags and fused reporters may be left off the sequences shown.
